{"source": "patent US7674816B2", "about": "“Substituted melatonin derivatives, process for their preparation, and methods of use” (Abraxis BioScience, LLC, priority 2003, dated 2010)", "target": "T1, GABAA α-5 site (Bos taurus, UniProt P22300+Q08E50)", "T1 construct": "Frozen bovine hippocampus was thawed and homogenized in 40 volumes of ice-cold 0.32 M sucrose; from tissue; host or cells: bovine hippocampus membranes (washed pellet)", "T1 sequence (Q08E50 32-462)": "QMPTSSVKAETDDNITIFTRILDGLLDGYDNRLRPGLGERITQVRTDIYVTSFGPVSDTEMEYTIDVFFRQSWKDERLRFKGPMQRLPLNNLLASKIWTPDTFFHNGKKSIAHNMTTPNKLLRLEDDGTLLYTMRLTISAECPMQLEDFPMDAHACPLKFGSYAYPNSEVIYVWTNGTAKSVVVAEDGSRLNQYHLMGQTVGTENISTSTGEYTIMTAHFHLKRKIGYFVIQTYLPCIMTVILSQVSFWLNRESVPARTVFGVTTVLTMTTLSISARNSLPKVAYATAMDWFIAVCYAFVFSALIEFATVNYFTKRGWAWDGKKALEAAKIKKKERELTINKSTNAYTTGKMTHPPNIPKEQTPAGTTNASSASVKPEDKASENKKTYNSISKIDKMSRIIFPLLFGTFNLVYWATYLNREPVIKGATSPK", "T1 sequence (P22300 40-475)": "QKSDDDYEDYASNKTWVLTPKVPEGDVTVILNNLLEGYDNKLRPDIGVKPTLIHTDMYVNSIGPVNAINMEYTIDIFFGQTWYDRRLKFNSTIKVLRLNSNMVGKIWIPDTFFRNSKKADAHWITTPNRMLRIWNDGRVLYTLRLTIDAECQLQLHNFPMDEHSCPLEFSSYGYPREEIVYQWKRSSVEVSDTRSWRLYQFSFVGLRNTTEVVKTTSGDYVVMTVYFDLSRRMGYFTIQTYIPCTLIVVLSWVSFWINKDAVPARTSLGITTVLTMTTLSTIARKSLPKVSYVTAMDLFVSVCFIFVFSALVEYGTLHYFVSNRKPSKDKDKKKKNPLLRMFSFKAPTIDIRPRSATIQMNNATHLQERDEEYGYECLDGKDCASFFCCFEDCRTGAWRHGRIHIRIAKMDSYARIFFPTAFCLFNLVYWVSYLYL", "assay": "GABAA alpha 5 site competitive binding (3H-RY80)", "conditions": "Conc. 1.0E−4 M, bovine hippocampus", "experimental": "Frozen bovine hippocampus was thawed and homogenized in 40 volumes of ice-cold 0.32 M sucrose. The suspension was centrifuged at 1000×g for 10 minutes at 4° C. […] The amount of radioactivity remained on the Whatman filter following filtration of the reaction mix and two washes with assay buffer was determined using a liquid scintillation counter. Inhibition of radioactive ligand binding by melatonin represents the competitive binding of melatonin to the same site as the radioactive ligand.", "note": "The name of at least one read-out is uncertain."}
{"smiles": "COc1ccc2[nH]c(-c3ccccc3)c(CCNC(C)=O)c2c1", "note": "[2-Phenylmelatonin, N-(2-(5-methoxy-2-phenyl-1H-indol-3-yl)ethyl)acetamide]", "values": [{"measurement": "Specific binding, GABAA Alpha 5 site (inhibition of radioactive ligand binding)", "value": 17.92, "unit": "%"}]}
